# Data from the supplement of paper PMC10849652.
# By UniProt entry, the sequences of proteins in these tests, tags left out. Where a name states a change or a piece, a line headed by the entry shows the natural chain unless it says otherwise.
# UniProt Q969M7: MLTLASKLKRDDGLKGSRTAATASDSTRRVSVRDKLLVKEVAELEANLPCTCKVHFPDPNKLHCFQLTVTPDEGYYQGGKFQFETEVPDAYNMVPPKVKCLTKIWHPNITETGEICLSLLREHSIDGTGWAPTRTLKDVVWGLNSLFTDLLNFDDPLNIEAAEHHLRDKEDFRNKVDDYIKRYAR
# UniProt Q9BRA2: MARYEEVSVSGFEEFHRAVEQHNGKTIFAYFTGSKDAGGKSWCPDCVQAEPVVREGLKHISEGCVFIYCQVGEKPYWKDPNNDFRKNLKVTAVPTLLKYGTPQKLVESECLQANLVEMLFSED
# UniProt P0CG48, whole entry, looked up: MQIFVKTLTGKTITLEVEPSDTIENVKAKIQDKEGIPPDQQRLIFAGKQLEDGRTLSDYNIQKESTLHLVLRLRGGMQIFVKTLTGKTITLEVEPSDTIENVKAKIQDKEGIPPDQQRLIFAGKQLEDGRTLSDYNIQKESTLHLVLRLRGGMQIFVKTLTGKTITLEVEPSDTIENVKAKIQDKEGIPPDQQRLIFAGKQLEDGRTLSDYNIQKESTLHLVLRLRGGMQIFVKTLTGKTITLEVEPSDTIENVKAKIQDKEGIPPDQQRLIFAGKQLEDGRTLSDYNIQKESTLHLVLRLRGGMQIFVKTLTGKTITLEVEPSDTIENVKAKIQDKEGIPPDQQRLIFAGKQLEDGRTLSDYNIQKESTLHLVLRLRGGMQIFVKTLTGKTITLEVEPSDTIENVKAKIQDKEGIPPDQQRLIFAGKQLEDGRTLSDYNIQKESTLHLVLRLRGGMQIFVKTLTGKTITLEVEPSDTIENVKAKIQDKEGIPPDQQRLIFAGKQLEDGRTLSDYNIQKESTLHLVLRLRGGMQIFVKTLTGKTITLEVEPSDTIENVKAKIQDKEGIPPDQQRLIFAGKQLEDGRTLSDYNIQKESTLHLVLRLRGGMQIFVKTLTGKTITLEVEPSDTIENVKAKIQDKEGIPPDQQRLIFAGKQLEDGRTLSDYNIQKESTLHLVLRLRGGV
# UniProt Q96S82: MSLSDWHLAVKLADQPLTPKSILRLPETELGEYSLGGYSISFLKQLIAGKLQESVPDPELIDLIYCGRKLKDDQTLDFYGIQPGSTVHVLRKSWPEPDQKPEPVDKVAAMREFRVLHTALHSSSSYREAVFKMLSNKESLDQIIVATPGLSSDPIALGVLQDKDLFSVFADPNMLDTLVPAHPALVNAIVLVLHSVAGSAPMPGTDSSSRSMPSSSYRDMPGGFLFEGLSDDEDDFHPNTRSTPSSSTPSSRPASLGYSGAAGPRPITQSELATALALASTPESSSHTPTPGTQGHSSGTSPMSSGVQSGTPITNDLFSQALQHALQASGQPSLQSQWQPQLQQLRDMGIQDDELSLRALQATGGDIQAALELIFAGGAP
# UniProt P22314: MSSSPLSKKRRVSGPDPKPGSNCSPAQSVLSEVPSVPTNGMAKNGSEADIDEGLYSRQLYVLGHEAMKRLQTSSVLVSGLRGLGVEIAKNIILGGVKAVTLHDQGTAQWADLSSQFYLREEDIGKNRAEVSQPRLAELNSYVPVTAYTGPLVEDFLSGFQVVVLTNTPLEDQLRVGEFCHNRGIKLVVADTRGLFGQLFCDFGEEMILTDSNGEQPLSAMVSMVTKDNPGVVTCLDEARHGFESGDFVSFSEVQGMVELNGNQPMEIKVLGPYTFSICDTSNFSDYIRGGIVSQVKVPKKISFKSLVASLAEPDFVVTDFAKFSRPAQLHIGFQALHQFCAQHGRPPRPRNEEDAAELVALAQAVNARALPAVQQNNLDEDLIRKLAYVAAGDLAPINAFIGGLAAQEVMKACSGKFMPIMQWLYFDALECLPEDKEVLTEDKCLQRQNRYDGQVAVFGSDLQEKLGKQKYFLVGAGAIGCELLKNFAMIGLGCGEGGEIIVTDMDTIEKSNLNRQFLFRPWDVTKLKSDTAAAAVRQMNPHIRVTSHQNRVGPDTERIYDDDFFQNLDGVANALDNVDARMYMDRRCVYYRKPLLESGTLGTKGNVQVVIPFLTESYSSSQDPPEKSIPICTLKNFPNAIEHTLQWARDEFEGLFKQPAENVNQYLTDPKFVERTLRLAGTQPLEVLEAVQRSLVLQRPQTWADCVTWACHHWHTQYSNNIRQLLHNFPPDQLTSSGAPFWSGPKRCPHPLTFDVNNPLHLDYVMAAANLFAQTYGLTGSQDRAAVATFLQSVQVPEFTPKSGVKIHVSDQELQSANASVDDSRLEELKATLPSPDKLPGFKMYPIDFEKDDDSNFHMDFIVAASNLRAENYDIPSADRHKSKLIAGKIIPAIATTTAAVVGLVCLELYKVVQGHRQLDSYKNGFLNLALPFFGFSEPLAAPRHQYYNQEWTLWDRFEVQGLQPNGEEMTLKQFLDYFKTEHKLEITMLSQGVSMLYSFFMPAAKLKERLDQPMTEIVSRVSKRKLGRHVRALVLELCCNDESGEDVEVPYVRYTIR
# UniProt P61088: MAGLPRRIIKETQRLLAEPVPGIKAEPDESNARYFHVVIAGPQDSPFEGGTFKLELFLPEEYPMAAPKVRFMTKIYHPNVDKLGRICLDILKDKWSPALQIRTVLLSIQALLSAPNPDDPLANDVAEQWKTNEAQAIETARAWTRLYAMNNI
# UniProt Q9NNW7, whole entry, looked up: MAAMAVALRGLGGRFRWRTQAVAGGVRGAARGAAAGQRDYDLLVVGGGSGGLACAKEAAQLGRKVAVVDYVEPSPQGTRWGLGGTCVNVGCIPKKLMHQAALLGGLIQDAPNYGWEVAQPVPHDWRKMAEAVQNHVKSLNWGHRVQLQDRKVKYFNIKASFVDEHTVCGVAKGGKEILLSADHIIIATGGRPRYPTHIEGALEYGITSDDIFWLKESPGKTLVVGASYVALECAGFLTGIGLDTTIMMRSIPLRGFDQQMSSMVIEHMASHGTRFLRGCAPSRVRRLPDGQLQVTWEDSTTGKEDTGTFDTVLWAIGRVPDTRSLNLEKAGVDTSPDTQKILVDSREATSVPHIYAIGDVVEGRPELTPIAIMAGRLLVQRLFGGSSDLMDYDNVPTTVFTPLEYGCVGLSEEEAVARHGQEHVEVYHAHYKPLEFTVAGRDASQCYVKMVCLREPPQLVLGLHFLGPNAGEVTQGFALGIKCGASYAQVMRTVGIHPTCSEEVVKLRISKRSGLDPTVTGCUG
# UniProt Q9C0C9: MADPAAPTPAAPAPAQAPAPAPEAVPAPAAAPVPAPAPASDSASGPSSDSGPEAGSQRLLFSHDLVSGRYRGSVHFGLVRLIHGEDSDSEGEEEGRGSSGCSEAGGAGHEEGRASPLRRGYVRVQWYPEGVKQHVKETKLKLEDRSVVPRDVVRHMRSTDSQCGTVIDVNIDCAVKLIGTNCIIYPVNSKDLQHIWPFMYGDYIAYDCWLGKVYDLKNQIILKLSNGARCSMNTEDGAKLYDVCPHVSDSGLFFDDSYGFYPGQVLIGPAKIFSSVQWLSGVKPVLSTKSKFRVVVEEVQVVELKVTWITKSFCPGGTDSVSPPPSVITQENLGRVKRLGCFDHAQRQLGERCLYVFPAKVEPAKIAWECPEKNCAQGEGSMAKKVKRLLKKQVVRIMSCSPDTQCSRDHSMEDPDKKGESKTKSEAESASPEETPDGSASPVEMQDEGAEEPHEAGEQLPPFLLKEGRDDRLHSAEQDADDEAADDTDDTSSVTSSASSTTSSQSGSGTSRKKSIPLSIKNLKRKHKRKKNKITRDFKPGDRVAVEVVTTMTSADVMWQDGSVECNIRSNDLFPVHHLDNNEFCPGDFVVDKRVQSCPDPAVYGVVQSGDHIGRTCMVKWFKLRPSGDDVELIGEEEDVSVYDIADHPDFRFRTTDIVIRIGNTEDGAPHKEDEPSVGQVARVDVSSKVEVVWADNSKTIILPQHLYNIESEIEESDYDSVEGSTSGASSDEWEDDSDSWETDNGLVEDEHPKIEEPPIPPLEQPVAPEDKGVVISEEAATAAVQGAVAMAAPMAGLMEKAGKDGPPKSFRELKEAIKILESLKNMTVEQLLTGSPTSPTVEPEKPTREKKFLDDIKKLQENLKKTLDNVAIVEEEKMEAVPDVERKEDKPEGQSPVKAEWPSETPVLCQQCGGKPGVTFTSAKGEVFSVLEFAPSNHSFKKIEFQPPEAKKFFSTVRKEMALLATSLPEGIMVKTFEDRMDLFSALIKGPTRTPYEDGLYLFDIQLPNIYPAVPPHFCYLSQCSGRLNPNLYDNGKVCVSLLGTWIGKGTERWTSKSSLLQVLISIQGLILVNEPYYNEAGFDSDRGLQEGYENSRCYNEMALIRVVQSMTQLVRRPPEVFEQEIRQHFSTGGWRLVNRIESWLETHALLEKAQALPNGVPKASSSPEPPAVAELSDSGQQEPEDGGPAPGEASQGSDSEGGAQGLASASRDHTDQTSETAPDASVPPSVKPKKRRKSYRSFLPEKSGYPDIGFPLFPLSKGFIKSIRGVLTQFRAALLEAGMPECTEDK
# UniProt P83876: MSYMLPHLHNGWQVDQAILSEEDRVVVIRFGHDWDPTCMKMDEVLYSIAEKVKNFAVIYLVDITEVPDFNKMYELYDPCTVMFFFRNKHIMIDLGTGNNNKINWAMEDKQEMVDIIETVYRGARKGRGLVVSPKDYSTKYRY
# UniProt P51668: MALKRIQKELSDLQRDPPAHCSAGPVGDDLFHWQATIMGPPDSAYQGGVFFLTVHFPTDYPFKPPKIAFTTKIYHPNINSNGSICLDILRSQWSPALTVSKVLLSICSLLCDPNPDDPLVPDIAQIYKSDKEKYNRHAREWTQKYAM
# UniProt Q7Z3V4: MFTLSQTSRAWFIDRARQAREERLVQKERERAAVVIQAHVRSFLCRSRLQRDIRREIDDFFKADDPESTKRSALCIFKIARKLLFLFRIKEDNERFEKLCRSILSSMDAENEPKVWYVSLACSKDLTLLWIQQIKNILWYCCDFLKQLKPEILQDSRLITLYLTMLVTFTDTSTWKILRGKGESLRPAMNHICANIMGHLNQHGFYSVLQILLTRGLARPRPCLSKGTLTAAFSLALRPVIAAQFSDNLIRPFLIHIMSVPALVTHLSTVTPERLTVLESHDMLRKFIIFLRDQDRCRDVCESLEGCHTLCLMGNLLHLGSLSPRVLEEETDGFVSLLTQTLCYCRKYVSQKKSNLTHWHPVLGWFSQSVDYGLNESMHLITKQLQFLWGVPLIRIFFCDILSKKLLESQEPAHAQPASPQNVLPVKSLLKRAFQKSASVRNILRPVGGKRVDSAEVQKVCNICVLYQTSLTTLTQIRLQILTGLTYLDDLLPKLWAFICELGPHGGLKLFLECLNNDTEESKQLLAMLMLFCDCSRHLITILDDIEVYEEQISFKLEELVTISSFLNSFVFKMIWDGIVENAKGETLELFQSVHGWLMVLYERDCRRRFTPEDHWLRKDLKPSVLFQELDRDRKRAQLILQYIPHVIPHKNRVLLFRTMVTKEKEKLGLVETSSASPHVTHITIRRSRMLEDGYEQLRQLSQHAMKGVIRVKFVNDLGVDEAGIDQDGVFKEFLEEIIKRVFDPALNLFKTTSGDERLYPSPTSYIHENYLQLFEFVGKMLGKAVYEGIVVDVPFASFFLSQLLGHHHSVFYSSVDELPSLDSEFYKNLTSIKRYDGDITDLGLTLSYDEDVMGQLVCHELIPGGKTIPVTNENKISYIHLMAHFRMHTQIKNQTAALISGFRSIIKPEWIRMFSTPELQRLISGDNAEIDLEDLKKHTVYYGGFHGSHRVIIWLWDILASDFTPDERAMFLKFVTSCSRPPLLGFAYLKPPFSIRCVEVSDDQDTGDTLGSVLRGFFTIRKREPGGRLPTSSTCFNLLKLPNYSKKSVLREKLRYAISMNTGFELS
# UniProt Q9H4B7, whole entry, looked up: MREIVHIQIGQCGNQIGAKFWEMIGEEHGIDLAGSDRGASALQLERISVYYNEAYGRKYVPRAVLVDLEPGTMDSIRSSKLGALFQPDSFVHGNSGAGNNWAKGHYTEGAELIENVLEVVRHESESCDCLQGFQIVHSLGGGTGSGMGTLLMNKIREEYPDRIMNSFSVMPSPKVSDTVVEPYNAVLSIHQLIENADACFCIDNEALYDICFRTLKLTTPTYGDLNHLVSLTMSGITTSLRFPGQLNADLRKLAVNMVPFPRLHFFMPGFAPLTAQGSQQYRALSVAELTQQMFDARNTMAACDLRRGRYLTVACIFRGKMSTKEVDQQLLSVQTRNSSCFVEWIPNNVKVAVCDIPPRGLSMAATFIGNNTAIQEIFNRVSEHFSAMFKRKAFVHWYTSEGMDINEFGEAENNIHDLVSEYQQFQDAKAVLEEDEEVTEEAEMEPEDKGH
# UniProt P49459, whole entry, looked up: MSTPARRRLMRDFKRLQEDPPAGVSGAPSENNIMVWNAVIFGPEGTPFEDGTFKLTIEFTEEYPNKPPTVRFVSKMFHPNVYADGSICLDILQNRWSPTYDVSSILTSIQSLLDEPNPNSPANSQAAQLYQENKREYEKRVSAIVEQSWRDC
# UniProt P63146, whole entry, looked up: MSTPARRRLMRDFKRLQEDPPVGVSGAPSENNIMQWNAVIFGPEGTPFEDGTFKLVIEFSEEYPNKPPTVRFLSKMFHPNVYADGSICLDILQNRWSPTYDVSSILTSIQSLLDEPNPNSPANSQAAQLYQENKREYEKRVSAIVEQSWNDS
# This is one part of the list.
# Experiments:
# Experiment in all cases: log2 fold change, soluble protein after heating vs DMSO (PISA); higher = thermal stabilisation; K562 lysate, 10 uM; active = over 0.2 and 3.5 SD of the protein, either way, in both replicates (recomputed)
# nilotinib = compound: Cc1cn(-c2cc(NC(=O)c3ccc(C)c(Nc4nccc(-c5cccnc5)n4)c3)cc(C(F)(F)F)c2)cn1 [nilotinib]
# In short: (§1)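 The values are log-two fold changes in thermal stability compared with solvent controls and come from duplicates. They were obtained by TMTpro 16plex LC-MS/MS, with channel sums equalised, on the supernatant after 21,000xg for 90 min. That supernatant came from crude K562 extract at 1 mg/mL protein treated with 10 μM compound for 30 min, heated for 3 min across 48°C-58°C, pooled and brought to 0.5% NP-40 at 4°C.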
# [1] = compound: Cc1nc(Nc2n[nH]c3c2CN(C(=O)N[C@H](CN(C)C)c2ccccc2)C3(C)C)c2sccc2n1
# In short: as §1
# dasatinib = compound: Cc1nc(Nc2ncc(C(=O)Nc3c(C)cccc3Cl)s2)cc(N2CCN(CCO)CC2)n1 [dasatinib]
# In short: as §1
# [2] = compound: Cc1ncc(-c2ccnc(Nc3ccc(S(C)(=O)=O)cc3)n2)n1C(C)C
# In short: as §1
# [3] = compound: Cn1cc(-c2ccc3c(c2)CCN3C(=O)Cc2cccc(C(F)(F)F)c2)c2c(N)ncnc21
# In short: as §1
# quisinostat = compound: Cn1cc(CNCC2CCN(c3ncc(C(=O)NO)cn3)CC2)c2ccccc21 [quisinostat]
# In short: as §1
# tipifarnib = compound: Cn1cncc1[C@@](N)(c1ccc(Cl)cc1)c1ccc2c(c1)c(-c1cccc(Cl)c1)cc(=O)n2C [tipifarnib]
# In short: as §1
# [4] = compound: NC(=O)Nc1cc(-c2cccc(F)c2)sc1C(=O)N[C@H]1CCCNC1
# In short: as §1
# [5] = compound: NC(=O)c1cnc(N[C@@H]2CCCC[C@@H]2N)nc1Nc1cccc(-n2nccn2)c1
# In short: as §1
# [6] = compound: NC1(c2ccc(-c3nc4ccn5c(=O)[nH]nc5c4cc3-c3ccccc3)cc2)CCC1
# In short: as §1
Target,log2 fold change (nilotinib),log2 fold change [1],log2 fold change (dasatinib),log2 fold change [2],log2 fold change [3],log2 fold change (quisinostat),log2 fold change (tipifarnib),log2 fold change [4],log2 fold change [5],log2 fold change [6]
UBE2F isoform 2 (UniProt Q969M7),inactive: 0.067,inactive: -0.074,inactive: 0.184,inactive: -0.052,inactive: -0.038,inactive: 0.126,inactive: -0.013,inactive: -0.046,inactive: 0.013,inactive: -0.014
TUBA1B (UniProt P68363),inactive: -0.043,inactive: -0.009,inactive: -0.051,inactive: -0.036,inactive: 0.01,inactive: -0.021,inactive: 0.002,inactive: 0.041,inactive: 0.002,inactive: -0.013
TXNDC17 (UniProt Q9BRA2),inactive: 0.025,inactive: -0.026,inactive: -0.022,inactive: 0.045,inactive: 0,inactive: 0.014,inactive: 0.039,inactive: -0.012,inactive: -0.021,inactive: 0.037
TUBB2A (UniProt Q13885),inactive: -0.005,inactive: -0.002,inactive: -0.049,inactive: -0.02,inactive: -0.001,inactive: -0.035,inactive: 0.009,inactive: 0.043,inactive: 0.003,inactive: 0.007
TUT7 (UniProt Q5VYS8),inactive: 0.002,inactive: 0.019,inactive: 0.042,inactive: 0.042,inactive: -0.144,inactive: -0.028,inactive: -0.006,inactive: -0.051,inactive: 0.002,inactive: 0.057
UBAC1 (UniProt Q9BSL1),inactive: 0.003,inactive: 0.011,inactive: -0.013,inactive: -0.019,inactive: 0.018,inactive: -0.028,inactive: 0,inactive: -0.01,inactive: 0.021,inactive: -0.021
UBAP2L isoform 5 (UniProt Q14157),inactive: -0.141,inactive: 0.015,inactive: -0.035,inactive: 0.055,inactive: -0.058,inactive: 0.024,inactive: -0.106,inactive: 0.048,inactive: 0.01,inactive: 0.02
UBQLN4 (UniProt Q9NRR5),inactive: 0.014,inactive: 0.036,inactive: 0,inactive: 0.02,inactive: -0.012,inactive: -0.016,inactive: -0.01,inactive: 0.01,inactive: -0.029,inactive: -0.031
UBC (UniProt P0CG48),inactive: 0.024,inactive: -0.005,inactive: -0.014,inactive: 0.088,inactive: -0.016,inactive: -0.032,inactive: 0.013,inactive: 0.006,inactive: -0.025,inactive: 0.016
UBL7 (UniProt Q96S82),inactive: -0.023,inactive: 0.039,inactive: 0.003,inactive: 0.02,inactive: 0.045,inactive: 0.011,inactive: -0.055,inactive: 0.01,inactive: 0.012,inactive: -0.059
TUBGCP5 (UniProt Q96RT8),inactive: 0.024,inactive: 0.04,inactive: 0.119,inactive: 0.048,inactive: -0.094,inactive: 0.203,inactive: 0.012,inactive: 0.077,active: -0.68,
UBR3 isoform 4 (UniProt Q6ZT12),inactive: 0.003,inactive: -0.033,inactive: -0.026,inactive: -0.005,inactive: 0.014,inactive: -0.069,inactive: -0.009,inactive: 0.036,inactive: -0.032,inactive: -0.039
UBA1 (UniProt P22314),inactive: -0.004,inactive: 0.014,inactive: -0.026,inactive: 0.002,inactive: 0.028,inactive: -0.019,inactive: -0.01,inactive: 0.019,inactive: 0.008,inactive: -0.011
UBE2Z (UniProt Q9H832),inactive: -0.016,inactive: 0.026,inactive: 0.026,inactive: 0.002,inactive: -0.006,inactive: 0.009,inactive: 0.012,inactive: 0.016,inactive: 0.04,inactive: 0.051
UBE2N (UniProt P61088),inactive: 0.034,inactive: -0.048,inactive: -0.008,inactive: 0.07,inactive: -0.013,inactive: 0.009,inactive: 0.048,inactive: -0.046,inactive: -0.001,inactive: 0.037
TUBB6 (UniProt Q9BUF5),inactive: -0.002,inactive: -0.023,inactive: -0.031,inactive: 0.006,inactive: -0.006,inactive: -0.028,inactive: 0.021,inactive: 0.022,inactive: -0.001,inactive: 0.004
TXNRD2 (UniProt Q9NNW7),inactive: 0.063,inactive: 0.008,inactive: 0.039,inactive: 0.071,inactive: 0.015,inactive: -0.017,inactive: -0.005,inactive: -0.023,inactive: -0.006,inactive: -0.05
UBE2O (UniProt Q9C0C9),inactive: 0.036,inactive: -0.017,inactive: -0.003,inactive: 0.06,inactive: -0.016,inactive: -0.051,inactive: -0.03,inactive: 0.012,inactive: -0.007,inactive: -0.028
TXNL4A (UniProt P83876),inactive: -0.003,inactive: -0.033,inactive: -0.03,inactive: 0.024,inactive: 0.035,inactive: -0.068,inactive: -0.029,inactive: 0.03,inactive: -0.001,inactive: -0.01
UBE2D1 (UniProt P51668),active: 0.259,inactive: -0.093,inactive: -0.1,inactive: -0.064,inactive: 0.033,inactive: 0.108,inactive: -0.065,inactive: -0.06,inactive: -0.066,inactive: 0.029
UBQLN1 (UniProt Q9UMX0),inactive: 0.047,inactive: 0.037,inactive: 0.045,inactive: 0.062,inactive: -0.054,inactive: -0.002,inactive: -0.027,inactive: 0.009,inactive: 0.012,inactive: 0.026
UCK2 (UniProt Q9BZX2),inactive: 0.001,inactive: -0.019,inactive: -0.028,inactive: 0.019,inactive: 0.031,inactive: -0.058,inactive: -0.011,inactive: 0.071,inactive: 0.018,inactive: -0.051
UBE3B (UniProt Q7Z3V4),inactive: 0.041,inactive: -0.006,inactive: 0.055,inactive: -0.011,inactive: 0.053,inactive: -0.077,inactive: -0.102,inactive: 0.041,inactive: 0.14,inactive: -0.026
TUBB3 (UniProt Q13509),inactive: 0.029,inactive: -0.028,inactive: -0.027,inactive: -0.003,inactive: 0.024,inactive: -0.004,inactive: -0.013,inactive: 0.039,inactive: 0.006,inactive: 0.006
TUBB1 (UniProt Q9H4B7),inactive: 0.095,inactive: -0.013,inactive: -0.043,inactive: -0.004,inactive: 0.002,inactive: 0.079,inactive: 0.03,inactive: 0.009,inactive: -0.006,inactive: -0.019
UBFD1 (UniProt O14562),inactive: -0.001,inactive: -0.003,inactive: -0.004,inactive: 0.012,inactive: -0.018,inactive: -0.013,inactive: 0.02,inactive: -0.024,inactive: -0.02,inactive: -0.014
TUBE1 (UniProt Q9UJT0),inactive: 0.036,inactive: -0.051,inactive: 0.017,inactive: -0.046,inactive: -0.028,inactive: -0.037,inactive: 0.029,inactive: 0.064,inactive: 0.007,inactive: 0.025
UBAP2 (UniProt Q5T6F2),inactive: -0.093,inactive: 0.008,inactive: -0.042,inactive: 0.021,inactive: -0.023,inactive: -0.008,inactive: -0.073,inactive: 0.019,inactive: 0.016,inactive: 0.029
UBE2A (UniProt P49459),inactive: 0.022,inactive: -0.016,inactive: 0.01,inactive: 0.07,inactive: -0.042,inactive: -0.06,inactive: 0.046,inactive: -0.008,inactive: 0.044,inactive: -0.023
UBE2B (UniProt P63146),inactive: 0.002,inactive: 0.001,inactive: 0.02,inactive: -0.024,inactive: -0.073,inactive: 0.004,inactive: 0.038,inactive: 0.055,inactive: -0.014,inactive: -0.001

# Look-ups from the list:
# Under log2 fold change [5], UBE2A (UniProt P49459) is entered as inactive: 0.044
# Under log2 fold change [1], UBAP2 (UniProt Q5T6F2) is entered as inactive: 0.008
